Results on 5 targets are retold here after the supplement of paper PMC6411743.

Amino acid sequences for entries named in this document (tags omitted). A change or cut given only in a name is not applied to a line headed by its entry.
UniProt P56159: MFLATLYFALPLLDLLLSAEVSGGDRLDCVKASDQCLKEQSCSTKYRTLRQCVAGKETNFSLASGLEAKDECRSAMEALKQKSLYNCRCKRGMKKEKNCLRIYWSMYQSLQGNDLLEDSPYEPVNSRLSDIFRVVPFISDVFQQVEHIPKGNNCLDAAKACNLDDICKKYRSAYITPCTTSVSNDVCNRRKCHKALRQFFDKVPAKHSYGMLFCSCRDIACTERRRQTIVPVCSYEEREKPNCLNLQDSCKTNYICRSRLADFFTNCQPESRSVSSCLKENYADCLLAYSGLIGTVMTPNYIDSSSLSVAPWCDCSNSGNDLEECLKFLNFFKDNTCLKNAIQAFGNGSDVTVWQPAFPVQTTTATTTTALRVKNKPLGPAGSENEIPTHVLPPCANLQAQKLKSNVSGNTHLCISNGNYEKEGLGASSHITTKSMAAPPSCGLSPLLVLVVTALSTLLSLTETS
UniProt P62820, whole entry: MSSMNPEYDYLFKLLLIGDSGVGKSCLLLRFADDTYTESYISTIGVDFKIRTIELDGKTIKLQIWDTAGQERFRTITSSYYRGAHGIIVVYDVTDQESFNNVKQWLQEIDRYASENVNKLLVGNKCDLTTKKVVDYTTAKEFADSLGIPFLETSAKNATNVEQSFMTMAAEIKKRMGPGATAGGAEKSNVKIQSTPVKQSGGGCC

± gives the standard deviation of the averaged measurements. This is one part of the list.

Compound in this assay: Nc1nc2c(ncn2[C@@H]2O[C@H](COP(=O)(O)OP(=O)(O)OP(=O)(O)O)[C@@H](O)[C@H]2O)c(=O)[nH]1 [guanosine triphosphate]
In words: NP40-soluble protein abundance relative to vehicle (solubility fold change) (ratio); higher = more soluble protein in presence of GTP. Here is the method:
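Solubility proteome profiling in Jurkat crude lysate. Lysate was treated with Mg-GTP (0.1-10 mM) for 10 min at room temperature and 3 min at 37 °C, then solubilised with 0.8% NP40 and benzonase, followed by ultracentrifugation. Proteins were quantified by TMT10 LC-MS/MS; the value is the NP40-soluble abundance relative to the NP40-processed vehicle, from 3 independent experiments.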

As for SUB1 (UniProt P53999), the NP40-soluble protein abundance runs as follows: (concentration: 0.1mM) 0.83 ± 0.063; (concentration: 0.5mM) 0.786 ± 0.031; (concentration: 1mM) 0.908 ± 0.024; (concentration: 2mM) 0.856 ± 0.016; (concentration: 4mM) 0.834 ± 0.025; (concentration: 6mM) 0.899 ± 0.055. In addition, the NP40-soluble protein abundance reads like this: (concentration: 8mM) 0.836 ± 0.082; (concentration: 10mM) 0.954 ± 0.037.

For the target UniProt P61254, the NP40-soluble protein abundance was 1.031 ± 0.0044 (concentration: 0.1mM); 1.05 ± 0.054 (concentration: 0.5mM); 1.02 ± 0.068 (concentration: 1mM); 0.855 ± 0.096 (concentration: 2mM); 0.892 ± 0.19 (concentration: 4mM); 0.899 ± 0.14 (concentration: 6mM). Further, the NP40-soluble protein abundance was 0.783 ± 0.23 (concentration: 8mM) and 0.933 ± 0.29 (concentration: 10mM).

Consider UniProt P56159 and related entries, for which the NP40-soluble protein abundance reads like this: (concentration: 0.1mM) 0.981 ± 0.067; (concentration: 0.5mM) 0.999 ± 0.065; (concentration: 1mM) 0.966 ± 0.071; (concentration: 2mM) 0.997 ± 0.082; (concentration: 4mM) 0.96 ± 0.059; (concentration: 6mM) 0.994 ± 0.089. Besides, the NP40-soluble protein abundance (concentration: 8mM) worked out at 0.938 ± 0.1 and the NP40-soluble protein abundance (concentration: 10mM) was 0.982 ± 0.056.

Take MRPS6 (UniProt P82932): the NP40-soluble protein abundance is, setting by setting: (concentration: 0.1mM) 1.02 ± 0.16; (concentration: 0.5mM) 1.06 ± 0.19; (concentration: 1mM) 1.29 ± 0.35; (concentration: 2mM) 1.36 ± 0.29; (concentration: 4mM) 1.3 ± 0.33; (concentration: 6mM) 1.28 ± 0.27. Moreover, the NP40-soluble protein abundance (concentration: 8mM) came out at 1.21 ± 0.32 and the NP40-soluble protein abundance (concentration: 10mM) was found to be 1.3 ± 0.42.

UniProt P62820: the NP40-soluble protein abundance is, setting by setting: (concentration: 0.1mM) 0.925 ± 0.052; (concentration: 0.5mM) 0.941 ± 0.016; (concentration: 1mM) 0.94 ± 0.058; (concentration: 2mM) 0.881 ± 0.091; (concentration: 4mM) 0.855 ± 0.11; (concentration: 6mM) 0.895 ± 0.1. Further, the NP40-soluble protein abundance reads like this: (concentration: 8mM) 0.903 ± 0.06; (concentration: 10mM) 0.879 ± 0.078.
